Measured data: PubChem BioAssay AID504804 (Drosophila RNAi Screening Center, 2011)

Assay: 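Knock-downs shielding fly cells from apoptosis caused by DNA damage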 (primary screen)
System: Drosophila Kc cells
Reagent: long dsRNA against Drosophila genes, 0.5 µg dsRNA per well
Time to read-out: 96 h (48 h knock-down, then 48 h drug)
Conditions: doxorubicin 5 µg/ml for 48 h, added 48 h after dsRNA
Detection: 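Luminescent ATP counts per replicate, not normalised, reflecting viable cells after 48 h dsRNA knock-down followed by 48 h of 5 µg/ml doxorubicin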
Reading the numbers: raw ATP luminescence: higher = more viable cells, protection from doxorubicin
Call rule: 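z-score of 2 or more over plate mean in both duplicates, retained only when retests and separate dsRNAs confirm the protection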
The deposit covers about 19,000 reagents; below is a random part of those with a known target gene and a result. Over the whole deposit, 47 (0.25%) are marked active. 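Signals are raw, not normalised; exact z-scores behind calls not deposited; actives needed confirmation, so some wells reaching 2 SD are inactive.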

{"predicted target":"IFT43","amplicon":"DRSC02892","raw ATP luminescence, replicate 1":93277,"raw ATP luminescence, replicate 2":59130,"outcome":"inactive"}
{"predicted target":"CAH3","amplicon":"DRSC17776","raw ATP luminescence, replicate 1":55760,"raw ATP luminescence, replicate 2":55320,"outcome":"inactive"}
{"predicted target":"Golgin245","amplicon":"DRSC04374","raw ATP luminescence, replicate 1":67897,"raw ATP luminescence, replicate 2":58417,"outcome":"inactive"}
{"predicted target":"kl-5 (retired record)","amplicon":"DRSC20707","raw ATP luminescence, replicate 1":3.07e5,"raw ATP luminescence, replicate 2":2.99e5,"outcome":"inactive"}
{"predicted target":"kl-5 (retired record)","amplicon":"DRSC20736","raw ATP luminescence, replicate 1":2.24e5,"raw ATP luminescence, replicate 2":1.92e5,"outcome":"inactive"}
{"predicted target":"kl-5 (retired record)","amplicon":"DRSC20773","raw ATP luminescence, replicate 1":2.72e5,"raw ATP luminescence, replicate 2":2.57e5,"outcome":"inactive"}
{"predicted target":"kl-5 (retired record)","amplicon":"DRSC21161","raw ATP luminescence, replicate 1":2.09e5,"raw ATP luminescence, replicate 2":2.08e5,"outcome":"inactive"}
{"predicted target":"PCNA","amplicon":"DRSC07653","raw ATP luminescence, replicate 1":49533,"raw ATP luminescence, replicate 2":59207,"outcome":"inactive"}
{"predicted target":"Tdh","amplicon":"DRSC11788","raw ATP luminescence, replicate 1":23010,"raw ATP luminescence, replicate 2":21540,"outcome":"inactive"}

Continued; the last 2 above are carried over.
{"predicted target":"PCNA","amplicon":"DRSC07653","raw ATP luminescence, replicate 1":49533,"raw ATP luminescence, replicate 2":59207,"outcome":"inactive"}
{"predicted target":"Tdh","amplicon":"DRSC11788","raw ATP luminescence, replicate 1":23010,"raw ATP luminescence, replicate 2":21540,"outcome":"inactive"}
{"predicted target":"ninaC","amplicon":"DRSC03579","raw ATP luminescence, replicate 1":1.16e5,"raw ATP luminescence, replicate 2":90597,"outcome":"inactive"}
{"predicted target":"CG15653","amplicon":"DRSC04244","raw ATP luminescence, replicate 1":48810,"raw ATP luminescence, replicate 2":41597,"outcome":"inactive"}
{"predicted target":"CG13539","amplicon":"DRSC04181","raw ATP luminescence, replicate 1":42363,"raw ATP luminescence, replicate 2":48850,"outcome":"inactive"}
{"predicted target":"CG14591","amplicon":"DRSC04868","raw ATP luminescence, replicate 1":52187,"raw ATP luminescence, replicate 2":43860,"outcome":"inactive"}
{"predicted target":"Root","amplicon":"DRSC15972","raw ATP luminescence, replicate 1":92230,"raw ATP luminescence, replicate 2":76420,"outcome":"inactive"}
{"predicted target":"Ac76E","amplicon":"DRSC09642","raw ATP luminescence, replicate 1":63783,"raw ATP luminescence, replicate 2":63320,"outcome":"inactive"}
{"predicted target":"Ac76E","amplicon":"DRSC09662","raw ATP luminescence, replicate 1":24147,"raw ATP luminescence, replicate 2":18897,"outcome":"inactive"}
{"predicted target":"dy","amplicon":"DRSC20325","raw ATP luminescence, replicate 1":1.54e5,"raw ATP luminescence, replicate 2":3.84e5,"outcome":"inactive"}
{"predicted target":"CG31624","amplicon":"DRSC02617","raw ATP luminescence, replicate 1":72647,"raw ATP luminescence, replicate 2":64957,"outcome":"inactive"}
{"predicted target":"CG17343","amplicon":"DRSC02606","raw ATP luminescence, replicate 1":71607,"raw ATP luminescence, replicate 2":58993,"outcome":"inactive"}
{"predicted target":"CG13731","amplicon":"DRSC10059","raw ATP luminescence, replicate 1":39733,"raw ATP luminescence, replicate 2":49193,"outcome":"inactive"}
{"predicted target":"Mst84Db","amplicon":"DRSC12542","raw ATP luminescence, replicate 1":70770,"raw ATP luminescence, replicate 2":47600,"outcome":"inactive"}
{"predicted target":"Mst84Db","amplicon":"DRSC12598","raw ATP luminescence, replicate 1":61143,"raw ATP luminescence, replicate 2":49750,"outcome":"inactive"}
{"predicted target":"CG31949","amplicon":"DRSC00110","raw ATP luminescence, replicate 1":2.96e5,"raw ATP luminescence, replicate 2":3.26e5,"outcome":"inactive"}
{"predicted target":"Dlip2","amplicon":"DRSC12346","raw ATP luminescence, replicate 1":60397,"raw ATP luminescence, replicate 2":42320,"outcome":"inactive"}
{"predicted target":"lectin-28C","amplicon":"DRSC03010","raw ATP luminescence, replicate 1":39120,"raw ATP luminescence, replicate 2":67873,"outcome":"inactive"}
{"predicted target":"RhoGEF3 (retired record)","amplicon":"DRSC08266","raw ATP luminescence, replicate 1":50343,"raw ATP luminescence, replicate 2":58597,"outcome":"inactive"}
{"predicted target":"CG32856","amplicon":"DRSC13124","raw ATP luminescence, replicate 1":2.34e5,"raw ATP luminescence, replicate 2":1.98e5,"outcome":"inactive"}
{"predicted target":"pico","amplicon":"DRSC19430","raw ATP luminescence, replicate 1":3.67e5,"raw ATP luminescence, replicate 2":3.22e5,"outcome":"inactive"}
